From PMC7531848
These are yes or no findings as the source states them, for the method shown. In cells and extracts the contact can be indirect. These calls come from enrichment with a bait or labelling near it, and not all partners need be listed.

Sequences of proteins named here, by UniProt entry; tags and fusion partners are left off. A change or cut given only in a name is not applied to a line headed by its entry.
UniProt C4LZL4: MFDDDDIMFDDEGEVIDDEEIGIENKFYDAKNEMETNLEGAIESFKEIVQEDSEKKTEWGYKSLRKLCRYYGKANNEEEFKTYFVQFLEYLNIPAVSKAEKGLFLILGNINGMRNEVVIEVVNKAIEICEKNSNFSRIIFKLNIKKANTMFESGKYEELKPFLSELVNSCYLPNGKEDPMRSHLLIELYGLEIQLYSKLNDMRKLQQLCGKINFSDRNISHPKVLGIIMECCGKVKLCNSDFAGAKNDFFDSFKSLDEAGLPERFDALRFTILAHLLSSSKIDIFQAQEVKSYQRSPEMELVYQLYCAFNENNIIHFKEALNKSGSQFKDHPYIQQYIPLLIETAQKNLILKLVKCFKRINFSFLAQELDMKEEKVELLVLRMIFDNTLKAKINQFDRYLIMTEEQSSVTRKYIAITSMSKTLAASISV
UniProt Q8WQ58: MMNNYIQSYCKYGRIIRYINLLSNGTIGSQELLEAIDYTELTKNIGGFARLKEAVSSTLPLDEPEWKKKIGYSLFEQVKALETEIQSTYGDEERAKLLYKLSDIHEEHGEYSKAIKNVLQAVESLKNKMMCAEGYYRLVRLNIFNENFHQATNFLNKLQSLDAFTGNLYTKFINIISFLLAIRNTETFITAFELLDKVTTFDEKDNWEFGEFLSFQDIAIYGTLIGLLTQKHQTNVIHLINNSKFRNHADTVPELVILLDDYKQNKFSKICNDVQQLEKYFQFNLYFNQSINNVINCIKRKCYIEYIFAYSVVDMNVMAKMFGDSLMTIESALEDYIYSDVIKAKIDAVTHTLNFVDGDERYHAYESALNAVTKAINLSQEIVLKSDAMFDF
UniProt C4LVK0: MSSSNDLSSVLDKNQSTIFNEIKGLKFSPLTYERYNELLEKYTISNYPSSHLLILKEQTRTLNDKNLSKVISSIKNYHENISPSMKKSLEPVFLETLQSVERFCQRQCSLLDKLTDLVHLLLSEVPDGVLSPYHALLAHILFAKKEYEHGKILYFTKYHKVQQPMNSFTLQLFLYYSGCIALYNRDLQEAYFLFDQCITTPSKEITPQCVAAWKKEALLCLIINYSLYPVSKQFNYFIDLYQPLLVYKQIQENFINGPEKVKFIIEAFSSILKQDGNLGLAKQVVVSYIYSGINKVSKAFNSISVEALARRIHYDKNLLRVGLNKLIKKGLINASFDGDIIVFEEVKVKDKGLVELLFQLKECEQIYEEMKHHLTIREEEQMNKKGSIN
UniProt C4LU38: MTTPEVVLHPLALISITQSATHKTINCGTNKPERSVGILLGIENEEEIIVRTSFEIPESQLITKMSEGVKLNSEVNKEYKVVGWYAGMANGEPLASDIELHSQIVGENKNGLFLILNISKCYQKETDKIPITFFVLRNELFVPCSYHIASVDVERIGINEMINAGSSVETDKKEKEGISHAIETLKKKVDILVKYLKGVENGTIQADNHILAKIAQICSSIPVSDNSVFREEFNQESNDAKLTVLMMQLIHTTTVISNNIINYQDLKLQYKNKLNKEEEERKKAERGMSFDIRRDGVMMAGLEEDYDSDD

target: Flag tagged E. histolytica COP9 signalosome subunit 2 (Flag-CSN2) (E. histolytica) (UniProt C4LZL4); assay: affinity purification with mass spectrometry; lysate of E. histolytica expressing Flag-CSN2 incubated with rabbit anti-Flag magnetic agarose overnight at 4°C, eluted with 1.5 mg/mL 3X Flag peptide; label-free quantification against the vector control

| binding | Substance |
| --- | --- |
| binds | E. histolytica COP9 signalosome subunit 1 (CSN1) (from UniProt Q8WQ58) |
| binds | E. histolytica COP9 signalosome subunit 3 (CSN3) (from UniProt C4LVK0) |
| binds | E. histolytica COP9 signalosome subunit 6 (CSN6) (from UniProt C4LU38) |
